Source: article PMC8997993
Results are given in words; binding and its absence hold for the method and conditions named. In cells and extracts the contact can be indirect. Where a sequence is shown, tags or fusion partners need not be part of it.

Biological target: T1, CIB5-cYFP-3× Myc (A. thaliana) (UniProt Q9C670)
T1 sequence: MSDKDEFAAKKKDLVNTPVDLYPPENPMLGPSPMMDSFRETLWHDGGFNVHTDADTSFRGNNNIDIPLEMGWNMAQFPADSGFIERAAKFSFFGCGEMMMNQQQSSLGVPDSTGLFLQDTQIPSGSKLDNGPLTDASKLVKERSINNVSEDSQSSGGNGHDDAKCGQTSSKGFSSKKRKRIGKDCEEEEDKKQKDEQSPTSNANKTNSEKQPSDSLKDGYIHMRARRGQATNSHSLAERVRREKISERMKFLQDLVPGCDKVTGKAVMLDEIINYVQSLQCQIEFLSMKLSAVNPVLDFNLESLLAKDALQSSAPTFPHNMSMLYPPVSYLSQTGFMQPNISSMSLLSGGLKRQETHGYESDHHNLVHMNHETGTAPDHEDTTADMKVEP
Test: co-IP; BiFC plasmids co-transformed into A. thaliana protoplasts, 22 °C 12-16 h in the dark; total protein on anti-c-Myc affinity gel 4 h at 4 °C; washed with TTBS (17 mM Tris, 130 mM NaCl, pH 7.5, 1% Triton-X100); blots with anti-FLAG and anti-c-Myc

B1: PRE1-nYFP-3×FLAG (protein, UniProt Q9FLE9 1-92)
chain: MSNRRSRQSSSAPRISDNQMIDLVSKLRQILPEIGQRRRSDKASASKVLQETCNYIRNLNREVDNLSERLSQLLESVDEDSPEAAVIRSLLM
binding: no binding
